The target in the assay is T1, Myc-tagged IFI6 (UniProt P09912).
T1 sequence: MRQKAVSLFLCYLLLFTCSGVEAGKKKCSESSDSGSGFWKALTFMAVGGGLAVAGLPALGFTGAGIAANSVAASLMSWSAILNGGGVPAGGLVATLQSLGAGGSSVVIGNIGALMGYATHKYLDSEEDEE
The experiment in a line: co-IP; Fig. 6B-F; Flag-, His- and Myc-tagged proteins and their truncation mutants; cell lysate in IP lysis buffer, magnetic beads with selected antibodies, overnight at 4 °C, Western blot; cells not given. For orientation: In western blotting, separated proteins are transferred to a membrane and probed.

These are yes or no findings as the source states them, for the method shown. In cells and extracts the contact can be indirect. A result given as binding can be weak or reduced; the word gives no strength. Tags and fused reporters may be left off the sequences shown.

With “M1 domain of HSP90AA1 (His-tagged truncation mutant) (domain or fragment)”, the binding entry is recorded as “binds”.

Values taken from publication PMC12000569.
